Our source for the binding values is paper PMC4773767.

Assay [1] has as its target T1, endogenous Munc13-4 (rat (endogenous in RBL-2H3)) (UniProt Q9R189).
T1 sequence: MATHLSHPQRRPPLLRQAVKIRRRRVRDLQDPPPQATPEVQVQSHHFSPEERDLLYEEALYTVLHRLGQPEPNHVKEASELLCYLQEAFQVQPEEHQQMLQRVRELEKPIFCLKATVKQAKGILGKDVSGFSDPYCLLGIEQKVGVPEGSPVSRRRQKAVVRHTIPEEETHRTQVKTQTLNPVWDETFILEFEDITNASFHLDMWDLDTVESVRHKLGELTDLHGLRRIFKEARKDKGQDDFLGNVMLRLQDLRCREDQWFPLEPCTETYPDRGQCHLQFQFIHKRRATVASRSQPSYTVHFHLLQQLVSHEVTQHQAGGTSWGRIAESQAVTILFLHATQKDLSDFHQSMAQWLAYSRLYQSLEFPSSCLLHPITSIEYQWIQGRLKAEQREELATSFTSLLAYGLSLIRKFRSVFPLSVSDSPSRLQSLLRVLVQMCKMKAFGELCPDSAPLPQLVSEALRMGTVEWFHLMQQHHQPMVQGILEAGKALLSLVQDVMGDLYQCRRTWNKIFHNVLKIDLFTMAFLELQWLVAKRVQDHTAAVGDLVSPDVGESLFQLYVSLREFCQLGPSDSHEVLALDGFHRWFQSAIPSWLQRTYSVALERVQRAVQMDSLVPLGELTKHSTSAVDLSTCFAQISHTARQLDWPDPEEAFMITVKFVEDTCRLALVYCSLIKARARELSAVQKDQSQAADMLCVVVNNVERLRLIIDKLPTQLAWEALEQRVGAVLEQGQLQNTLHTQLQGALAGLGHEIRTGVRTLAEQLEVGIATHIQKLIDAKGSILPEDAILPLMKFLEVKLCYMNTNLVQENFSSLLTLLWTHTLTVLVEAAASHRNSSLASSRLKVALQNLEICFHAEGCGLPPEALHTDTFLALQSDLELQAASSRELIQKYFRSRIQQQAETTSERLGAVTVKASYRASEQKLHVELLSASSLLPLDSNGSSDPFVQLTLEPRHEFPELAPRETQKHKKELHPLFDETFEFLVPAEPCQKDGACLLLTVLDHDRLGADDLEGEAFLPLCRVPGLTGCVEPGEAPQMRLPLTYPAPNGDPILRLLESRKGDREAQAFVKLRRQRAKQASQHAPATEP
Put plainly: co-IP; RBL-2H3 cells transfected with FLAG-Rab27a together with Si-control or Si-Rab37 plasmid, G418-selected, treated with DSP, lysed in the presence of GTPγS; immunoprecipitation with or without anti-Munc13-4 antibody; blot with anti-FLAG or anti-Munc13-4.

In assay [2] the target is T2, FLAG-Rab27a (rat) (UniProt P23640).
T2 sequence: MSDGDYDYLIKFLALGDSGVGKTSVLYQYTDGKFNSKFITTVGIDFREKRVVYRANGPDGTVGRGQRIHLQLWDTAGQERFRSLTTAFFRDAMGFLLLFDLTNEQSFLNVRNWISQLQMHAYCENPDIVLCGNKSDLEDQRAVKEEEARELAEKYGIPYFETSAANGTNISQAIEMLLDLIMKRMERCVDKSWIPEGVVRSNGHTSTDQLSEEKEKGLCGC
Put plainly: co-IP; COS7 cells co-transfected; lysed at 4 °C in 25 mM Tris-HCl pH 7.5, 125 mM NaCl, 1 mM MgCl2, 1% Triton X-100 with 0.1 mM GTPγS; anti-FLAG (M2) on protein G-Sepharose overnight; blot with anti-HA (3F10) or anti-FLAG.

The target of assay [3] is T2, FLAG-Rab27a (rat). Put plainly: condition: only without GTPγS (no nucleotide or 0.1 mM GDP); co-IP; COS7 cells co-transfected; lysed at 4 °C in 25 mM Tris-HCl pH 7.5, 125 mM NaCl, 1 mM MgCl2, 1% Triton X-100 without GTPγS (no nucleotide named, or 0.1 mM GDP in Fig. 5A); anti-FLAG (M2) or anti-HA (12CA5) on protein G-Sepharose overnight; blot with anti-HA (3F10) or anti-FLAG.

Assay [4] concerns the target T3, Rab27a expressed in transfected RBL-2H3 cells (Fig. S15) (rat) (UniProt P23640).
T3 sequence: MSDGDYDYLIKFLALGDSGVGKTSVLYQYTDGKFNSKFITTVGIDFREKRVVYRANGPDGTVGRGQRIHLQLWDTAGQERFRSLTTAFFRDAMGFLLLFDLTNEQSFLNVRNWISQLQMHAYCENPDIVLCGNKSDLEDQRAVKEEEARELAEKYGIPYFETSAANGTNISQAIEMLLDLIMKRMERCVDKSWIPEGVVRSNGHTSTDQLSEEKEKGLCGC
The experiment in a line: co-IP; lysate from transfected RBL-2H3 cells pretreated with DSP, with or without antigen stimulation (Fig. S15).

No constants are given. Whether binding was seen depends on the method and setting. In cells and extracts the contact can be indirect. Some results given as binding are weak or reduced against the parent protein; the word gives no strength. For some of these results: Where a sequence is shown, tags or fusion partners need not be part of it.

B1: FLAG-Rab27a (in RBL-2H3 cells) (protein, UniProt P23640 1-221)
chain: MSDGDYDYLIKFLALGDSGVGKTSVLYQYTDGKFNSKFITTVGIDFREKRVVYRANGPDGTVGRGQRIHLQLWDTAGQERFRSLTTAFFRDAMGFLLLFDLTNEQSFLNVRNWISQLQMHAYCENPDIVLCGNKSDLEDQRAVKEEEARELAEKYGIPYFETSAANGTNISQAIEMLLDLIMKRMERCVDKSWIPEGVVRSNGHTSTDQLSEEKEKGLCGC
Consider B1, for which, in assay [1], the binding result is recorded as “binds”.

B2: HA-Munc13-4 (protein, UniProt B2RUP2-2 1-1083)
chain: MATHLSHPQRRPLLRQAIKIRRRRVRDLQDPPPQATQEVQVQSHHFSPEERDLLYEEALYTVLHRLGQPEPNHVKEASELLSYLQEAFQVQPEEHQQMLRRVRELEKPVFCLKATVKQAKGILGKDVSGFSDPYCLLGIEQKVGVAEGSPVSRRRQKAVVKHTIPEEETHRTQVKSQTLNPVWDETFILEFEDIANASFHLDMWDLDTVESVRQKLGELTDLHGLRRIFKEARKDKGQDDFLGNVVLRLQDLRCREDQWFPLEPCTETYPDRGQCHLQFQFIHKRRATAASRSQPSYTVHFHLLQQLVSHEVTQHQAGSTSWDASLSPQAVTILFLHATQKDLSDFHQSMAQWLAYSRLYQSLEFPSSCLLHPITSIEYQWIQGRLKAEQREELATSFTSLLAYGLSLIRKFRSVFPLSVSDSPSRLQSLLRVLVQMCKMKAFGELCPDSAPLSQLVSEALRMGTVEWFHLMQQHHQPMGILEAGKALLNLVQDVMGDLYQCRRTWNKIFHNVLKIDLFSMAFLELQWLVAKRVQDHTVAAGNLVSPDIGESLFQLYVSLKELCQLGPVPSDSREVLALDGFHRWFQPAIPSWLQKTYSVALERVQRAVQMDTLVPLGELTKHSTSAVDLSTCFAQISHTARQLDWPDPEEAFMITVKFVEDTCRLALVYCSLIKARARELSAVQKDQSQAADMLCVVVNNMEQLRLIIDKLPTQLAWEALEQRVGAVLEEGQLQNTLHAQLQGALAGLGHEIRTGVRTLAEQLEVGIATHIQKLIGVKESVLPEDAILPLMKFLEVKLCYMNTNLVQENFSSLLTLLWTHTLTVLVEVASSQRSSSLASGRLKVALQNLEVCFHAEGCGLPPEALHTDTFQALQNDLELQAASSRELIQKYFCSRIQQQAETTSERLGAVTVKVSYRASEQRLRVELLSASSLLPLDSNGSSDPFVQLTLEPRHEFPEVAPRETQKHKKELHPLFDETFEFLVPAEPCQKAWACLLLTVLDHDRLGADDLEGEAFLPLCRVPGLTDCAEPGEAPQMRLPLTYPAPNGDPILRLLESRKGDREAQAFVKLRRQRAKQASQHAP
On to B2, for which the binding result was “binds” in the assay with FLAG-Rab27a (rat) [2] and “no binding” in the assay with FLAG-Rab27a (rat) [3].

B3: Munc13-4 expressed in transfected RBL-2H3 cells (Fig. S15) (protein, UniProt B2RUP2-2 1-1083)
chain: MATHLSHPQRRPLLRQAIKIRRRRVRDLQDPPPQATQEVQVQSHHFSPEERDLLYEEALYTVLHRLGQPEPNHVKEASELLSYLQEAFQVQPEEHQQMLRRVRELEKPVFCLKATVKQAKGILGKDVSGFSDPYCLLGIEQKVGVAEGSPVSRRRQKAVVKHTIPEEETHRTQVKSQTLNPVWDETFILEFEDIANASFHLDMWDLDTVESVRQKLGELTDLHGLRRIFKEARKDKGQDDFLGNVVLRLQDLRCREDQWFPLEPCTETYPDRGQCHLQFQFIHKRRATAASRSQPSYTVHFHLLQQLVSHEVTQHQAGSTSWDASLSPQAVTILFLHATQKDLSDFHQSMAQWLAYSRLYQSLEFPSSCLLHPITSIEYQWIQGRLKAEQREELATSFTSLLAYGLSLIRKFRSVFPLSVSDSPSRLQSLLRVLVQMCKMKAFGELCPDSAPLSQLVSEALRMGTVEWFHLMQQHHQPMGILEAGKALLNLVQDVMGDLYQCRRTWNKIFHNVLKIDLFSMAFLELQWLVAKRVQDHTVAAGNLVSPDIGESLFQLYVSLKELCQLGPVPSDSREVLALDGFHRWFQPAIPSWLQKTYSVALERVQRAVQMDTLVPLGELTKHSTSAVDLSTCFAQISHTARQLDWPDPEEAFMITVKFVEDTCRLALVYCSLIKARARELSAVQKDQSQAADMLCVVVNNMEQLRLIIDKLPTQLAWEALEQRVGAVLEEGQLQNTLHAQLQGALAGLGHEIRTGVRTLAEQLEVGIATHIQKLIGVKESVLPEDAILPLMKFLEVKLCYMNTNLVQENFSSLLTLLWTHTLTVLVEVASSQRSSSLASGRLKVALQNLEVCFHAEGCGLPPEALHTDTFQALQNDLELQAASSRELIQKYFCSRIQQQAETTSERLGAVTVKVSYRASEQRLRVELLSASSLLPLDSNGSSDPFVQLTLEPRHEFPEVAPRETQKHKKELHPLFDETFEFLVPAEPCQKAWACLLLTVLDHDRLGADDLEGEAFLPLCRVPGLTDCAEPGEAPQMRLPLTYPAPNGDPILRLLESRKGDREAQAFVKLRRQRAKQASQHAP
With B3, in assay [4], the binding entry is “binds”.
